Results on 61 molecules are retold here after PubChem BioAssay AID445 (National Center for Advancing Translational Sciences (NCATS), 2006).

The list shows a part of the results. The main result of the screen is listed elsewhere. These columns were measured beside it and carry no call. Most of these compounds were active or inconclusive in the main read-out, so they are no random draw. Words in brackets tell the shape of the fitted curve; partial curves, single points and poor fits give uncertain potencies.

This test in a line: IkB Signaling. To be noted: ABC-DLBCL IkBa-CBG/CBR dual luciferase ratio (green luciferase fused to IkBa over red control in OCI-Ly3 lymphoma cells), 4 h. An outline of the steps:
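Luminescence ratio of IκBα-fused green versus native red beetle luciferase in OCI-Ly3 cells, 4 h post-doxycycline with compound; red signal alone, scaled from basal (0%) to zero light (-100%), flagged nonspecific or cytotoxic effects.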

[1] abbreviates: measured here: control luc red channel unless noted.
Where [2] appears, read: measured here: IkB-luc green channel.
Setting [3] is: measured here: control luc red channel.

With `Cn1nc(-c2ccccc2F)c2cc(C(=O)N3CCN(c4ccc(F)cc4)CC3)sc21`, the AC50 under setting [1] is 1.26 µM [falling, partial curve].

Take `Cc1ccc(NC(=O)CSc2ncnc3c2sc2ccccc23)cc1C`: the AC50 under setting [1] is 2.51 µM [rising, partial curve].

With `O=C(OCCOc1ccccc1Cl)c1ccc(-n2cnnn2)cc1`, the AC50 under setting [1] was 39.8 µM [falling, single point].

As to `Cc1nn(C(=O)c2cccc(F)c2)c(C)c1S(=O)(=O)N1CCCCCC1`, under setting [1], the AC50 was 0.316 µM [falling, partial curve].

As for `Cc1ccc(C)c(NC(=O)CSc2nc(=O)n(Cc3ccccn3)c3c2CCC3)c1`, under setting [1], the AC50 is 39.8 µM [falling, single point].

Regarding `Cc1cccc(N2CCN(S(=O)(=O)c3ccc(F)c(C(=O)Nc4ccc(C(C)C)cc4)c3)CC2)c1C`, the AC50 under setting [1] is 3.16 µM [falling, partial curve].

For the molecule `Cc1cc(C)cc(NS(=O)(=O)c2ccc3[nH]cc(C(=O)N4CCCCCC4)c(=O)c3c2)c1`, the AC50 under setting [1] is 12.6 µM [falling, single point].

As for `COc1ccc(OC)c(Nc2ncnc3c2cnn3-c2ccc(C)cc2)c1`, under setting [1], the AC50 was 20 µM [falling, single point].

Regarding `Cc1c(NC(=O)c2cc(-c3ccc(O)cc3)on2)c(=O)n(-c2ccccc2)n1C`, the AC50 under setting [1] is 12.6 µM [falling, partial curve].

With `COc1ccccc1CNc1nc2ccccc2c2nc(-c3cccnc3)nn12`, the AC50 under setting [1] is 39.8 µM [falling, single point].

For the molecule `COCCCNC(=O)c1cnn(-c2ccccc2Cl)c1C1CCN(C(=O)OC(C)(C)C)CC1`, the concentration at half-maximal activity (AC50) under setting [1] is 39.8 µM [falling, single point].

Take `CCc1ccc(CNc2ccc(N3CCN(C(C)=O)CC3)cc2)cc1`: under setting [1], the AC50 was 25.1 µM [falling, partial curve].

Turning to `COc1ccc(CNC(=O)C2CCN(C(=O)c3ccc(-n4ccc5ccccc54)s3)CC2)cc1`, the AC50 under setting [1] was 12.6 µM [falling, partial curve].

On to `COC(=O)c1ccc(NC(=O)CSc2cn(CC(=O)N3CCCCCC3)c3ccccc23)cc1`, for which the AC50 under setting [1] was 20 µM [falling, single point].

Turning to `COc1cccc(NC(=O)C2CCCN(c3nnc(-n4c(C)ccc4C)s3)C2)c1` (stereo not drawn), the AC50 under setting [1] is 25.1 µM [falling, single point].

Regarding `COCCCn1c(=N)c(S(=O)(=O)c2ccccc2)cc2c(=O)n3cc(C)ccc3nc21`, the AC50 under setting [1] is 3.16 µM [rising, single point].

In the case of `Cc1ccccc1OCC(=O)Nc1ccc2nc(SCC(=O)N(C)c3ccccc3)sc2c1`, the AC50 under setting [1] is 7.94 µM [falling, partial curve].

On to `CC(C)(C)OC(=O)N1CCC(c2c(C(=O)N3CCN(c4ccc(Cl)cc4)CC3)cnn2-c2ccc(F)cc2F)CC1`, for which the AC50 under setting [1] is 25.1 µM [falling, partial curve].

Regarding `CCN1CC=C2C(C#N)=C(N)C(C#N)(C#N)C(c3cc(Cl)ccc3Cl)C2C1` (stereo not drawn), under setting [1], the AC50 was 39.8 µM [falling, single point].

Consider `COC(=O)CSc1ncccc1-c1nc2ccccc2[nH]1`, for which the AC50 under setting [1] was 0.158 µM [falling, full curve].

`COc1ccc(Cl)cc1NC(=O)c1cc2ccc3ccc(C)[nH]c3c2n1`: the AC50 under setting [1] is 0.631 µM [falling, full curve].

Turning to `Cc1ccc(Cn2c(CNS(=O)(=O)c3ccc(C(C)(C)C)cc3)nc3cccnc32)cc1`, the AC50 under setting [1] was 31.6 µM [falling, single point].

As for `O=C(c1cc(-c2ccc(Cl)cc2)on1)N(Cc1cccc(F)c1)Cc1ccco1`, the AC50 under setting [1] is 25.1 µM [falling, single point].

Regarding `COc1ccc(-c2cc(C(=O)Nc3ccc4c(c3)OCO4)no2)cc1OC`, the AC50 under setting [1] was 0.00631 µM [rising, full curve, poor fit].

For the molecule `Cc1ccc(NS(=O)(=O)c2ccc(NC(=O)c3ccc(Br)o3)cc2)c(C)c1`, the half-maximal activity concentration (AC50) under setting [1] was 3.98 µM [falling, full curve].

Regarding `O=C(NCCc1ccccc1)c1cnn(-c2ccc(F)cc2)c1-n1cccc1`, under setting [1], the AC50 was 25.1 µM [falling, single point].

On to `CCOC(=O)N1CCc2c(sc3c2c(=O)n(CCc2ccccc2)c(=O)n3Cc2c(F)cccc2Cl)C1`, for which the AC50 under setting [1] was 7.94 µM [falling, partial curve].

Regarding `CCc1ccc(CNC(=O)CN2CCSc3ccccc32)cc1`, the AC50 under setting [1] is 20 µM [falling, single point].

With `Cc1ccc(NC(=O)CSc2nc3n[nH]c(C)c3c(=N)n2-c2cccc(C)c2)cc1`, the AC50 under setting [1] is 7.94 µM [falling, full curve, poor fit].

For the molecule `CC1=C(C(=O)OCC2CCCO2)C(c2ccccc2OC(C)C)C2=C(CC(c3ccco3)CC2=O)N1` (stereo not drawn), the AC50 under setting [1] is 25.1 µM [falling, partial curve].

For `COc1ccc(N2CCN(c3oc(/C=C/c4cc(OC)c(OC)c(OC)c4)nc3C#N)CC2)cc1`, the AC50 under setting [1] is 10 µM [falling, partial curve].

Regarding `Cc1cc(C)cc(Oc2nc3c(c(=O)n(C)c(=O)n3C)n2Cc2ccc(F)cc2)c1`, under setting [1], the AC50 is 25.1 µM [falling, partial curve].

For the molecule `COc1ccc(F)cc1S(=O)(=O)NCCc1sc2nc(-c3ccc(F)cc3)nn2c1C`, the AC50 under setting [1] is 10 µM [falling, partial curve].

On to `O[C@@H]1[C@@H]2c3cc4c(cc3CN3CCC(=C[C@@H]1O)[C@H]23)OCO4`, for which the AC50 was 1.58 µM [rising, partial curve] under setting [2] and 5.01 µM [falling, full curve] under setting [3].

Take `O=S(=O)(NCc1cn2ccsc2n1)c1ccc(Oc2ccccc2)cc1`: under setting [1], the AC50 is 3.98 µM [falling, full curve].

For the molecule `Cc1cc(OCC(=O)N(Cc2sccc2C)C2CCS(=O)(=O)C2)ccc1Cl` (stereo not drawn), the AC50 under setting [1] was 15.8 µM [falling, partial curve].

Consider `Cc1cc(C)c2c(CC(=O)Nc3c(C(=O)Nc4ccc(Cl)cc4)oc4ccccc34)coc2c1`, for which the AC50 under setting [1] is 12.6 µM [falling, partial curve].

Consider `CC(C)COc1ccc(C(=O)CCN2CCCCC2)cc1`, for which the AC50 under setting [1] was 20 µM [falling, partial curve].

Consider `CCOc1ccc(-c2nnc(SCc3nnc(-c4ccccc4)o3)n2-c2ccccc2F)cc1`, for which the AC50 under setting [1] was 12.6 µM [falling, partial curve].

In the case of `CCn1c(=O)c2sccc2n2c(CCC(=O)Nc3cc(C)cc(C)c3)nnc12`, the half-maximal activity concentration (AC50) under setting [1] is 5.01 µM [rising, full curve, poor fit].

As for `Cc1ccc(Cl)cc1N1CCN(c2ncnc3onc(C)c23)CC1`, the AC50 under setting [1] was 15.8 µM [falling, partial curve].

With `CCOc1ccc(NC(=O)c2nccnc2CO)cc1`, the AC50 under setting [1] is 10 µM [falling, partial curve].

`CCC(c1nnnn1C(C)(C)C)N1CCN(c2cc(Cl)ccc2C)CC1` (stereo not drawn): the AC50 under setting [1] is 15.8 µM [falling, partial curve].

With `Cc1cc(C)c2c(CC(=O)N(Cc3ccccc3)C3CCS(=O)(=O)C3)coc2c1` (stereo not drawn), under setting [1], the AC50 was 31.6 µM [falling, single point].

On to `CCC(=O)N1CCc2cc(Br)cc(S(=O)(=O)N3CCCC(C(=O)N(C)c4ccc(Br)cc4)C3)c21` (stereo not drawn), for which the AC50 under setting [1] is 12.6 µM [falling, partial curve].

In the case of `COc1ccc(C(=O)NCCn2cc(SCC(=O)Nc3cc(C)on3)c3ccccc32)cc1OC`, under setting [1], the AC50 was 12.6 µM [falling, partial curve].

Regarding `COc1ccccc1CNC(=O)c1ccc(-c2nc(CN3CCc4ccccc43)c(C)o2)cc1`, the AC50 under setting [1] is 6.31 µM [falling, partial curve].

`CCCCN(C(=O)Cn1nnc2ccccc21)C(C(=O)NCc1ccco1)c1ccncc1` (stereo not drawn): under setting [1], the AC50 is 20 µM [falling, partial curve].

Consider `CCc1ccc(NC(=O)C(=O)NCCc2csc(-c3ccc(C(F)(F)F)cc3)n2)cc1`, for which the AC50 under setting [1] was 10 µM [falling, partial curve].

For `COc1cccc(C(=O)N2c3cc(C)ccc3C(C)(c3ccccc3)CC2(C)C)c1` (stereo not drawn), the AC50 under setting [1] is 0.631 µM [falling, full curve].

With `Cn1cccc1C(=O)NC(=O)COC(=O)c1ccccc1Sc1ccccc1C#N`, the concentration at half-maximal activity (AC50) under setting [1] is 7.94 µM [falling, partial curve].

Consider `Cc1ccc(O)c(NC(=O)c2cccc(NC(=O)c3ccco3)c2)c1`, for which the AC50 under setting [1] was 25.1 µM [falling, single point].

`CCc1ccc(CNC(=O)c2cnc3sc4cc(OC)ccc4n3c2=O)cc1`: the AC50 under setting [1] is 3.98 µM [rising, full curve, poor fit].

Regarding `Cc1cccc(C)c1Nc1sc(C(=O)c2ccccc2)c(N)c1C(=O)Nc1ccc(F)cc1`, under setting [1], the AC50 is 3.16 µM [falling, full curve].

As for `CCOC(=O)c1ccc(N2C(=O)c3n[nH]c(-c4cccs4)c3C2c2ccc(C(C)(C)C)cc2)cc1` (stereo not drawn), the AC50 under setting [1] was 20 µM [falling, single point].

Take `O=C(Nc1nc2n(n1)C(c1ccccc1)C=C(c1ccccc1)N2)c1ccc(Cl)c([N+](=O)[O-])c1` (stereo not drawn): the AC50 under setting [1] was 39.8 µM [falling, single point].

Consider `CCc1cccc(NC(=O)Cn2nc(-c3ccc(OC)cc3)ccc2=O)c1`, for which the AC50 under setting [1] was 39.8 µM [falling, single point].

Consider `CCOc1ccccc1NC(=O)Cn1c(=O)n(Cc2ccccc2)c(=O)c2c(C)c(C)sc21`, for which the AC50 under setting [1] was 6.31 µM [falling, partial curve].

Consider `Cc1ccc(NC(=O)c2c(C)oc3ccc(O)c(CN4CCCCCC4)c23)c(C)c1`, for which, under setting [1], the AC50 was 25.1 µM [falling, partial curve].

`CC(C)OCCCNC(=O)c1cc2c(-c3ccc(Cl)cc3)nn(C)c2s1`: the AC50 under setting [1] is 2 µM [falling, full curve, poor fit].

Regarding `N#CCSc1nnc(COc2cccc3ccccc23)n1-c1ccccc1`, the AC50 was 25.1 µM [falling, partial curve] under setting [2] and 12.6 µM [falling, partial curve] under setting [3].
